No constants are given. Whether binding was seen depends on the method and setting. Binding seen in cells or lysates may run through a third protein. Some results given as binding are weak or reduced against the parent protein; the word gives no strength. Values belong to the binder of their own block, whether it stands above or below them.
Experiments:
[1] = molecular target: T1, Barrier to Autointegration Factor 1 (BANF1) (human (endogenous in HT-29 and HCT-116)) (UniProt O75531); test: co-IP; HT-29 and HCT-116 cell lysates, pre-cleared with protein A/G beads, incubated overnight with a VRK1- or BANF1-specific antibody, captured on Protein A/G beads, washed three times, eluted with high salt, Western blot
T1 sequence: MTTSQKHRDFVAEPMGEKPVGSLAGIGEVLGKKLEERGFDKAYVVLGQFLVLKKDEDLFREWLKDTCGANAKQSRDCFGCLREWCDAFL

[2] = molecular target: T2, vaccinia-related kinase 1 (VRK1) (human (endogenous in HT-29 and HCT-116)) (UniProt Q99986); test: as above
T2 sequence: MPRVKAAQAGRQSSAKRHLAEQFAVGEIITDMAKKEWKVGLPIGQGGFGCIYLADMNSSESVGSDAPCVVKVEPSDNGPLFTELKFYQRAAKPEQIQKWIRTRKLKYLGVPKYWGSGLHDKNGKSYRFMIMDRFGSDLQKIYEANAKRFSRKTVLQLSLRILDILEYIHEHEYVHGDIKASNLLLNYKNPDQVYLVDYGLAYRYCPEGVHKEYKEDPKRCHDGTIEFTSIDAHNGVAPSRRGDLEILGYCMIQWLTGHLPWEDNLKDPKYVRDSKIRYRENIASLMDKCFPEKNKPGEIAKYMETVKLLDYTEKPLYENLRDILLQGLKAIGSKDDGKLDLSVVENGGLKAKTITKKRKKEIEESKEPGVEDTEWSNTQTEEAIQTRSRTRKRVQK

binding [1]: binds
B1: vaccinia-related kinase 1 (VRK1) (protein, UniProt Q99986 1-396)
chain: T2 sequence

binding [2]: binds
B2: Barrier to Autointegration Factor 1 (BANF1) (protein, UniProt O75531 1-89)
chain: T1 sequence
